Results are given in words; binding and its absence hold for the method and conditions named. Binding seen in cells or lysates may run through a third protein. Some entries that bind do so weakly or less than the wild type.
How the values were obtained:
[1] = molecular target: BACH2, endogenous in mouse splenic Treg cells (mouse (endogenous in splenic Treg cells)) (UniProt P97303); assay: co-IP; lysates of Senp3+/+Foxp3-Cre and Senp3fl/flFoxp3-Cre splenic Treg cells stimulated with anti-CD3 and anti-CD28 for 24 h; IP with anti-BACH2 antibody or control Ig; SENP3 detected by immunoblotting; RIPA buffer
[2] = molecular target: Flag-tagged mouse BACH2 (mouse) (UniProt P97303); assay: co-IP; HEK293T (legend: HEK293) cells transiently transfected with SENP3 and BACH2 expression vectors; lysed in RIPA buffer (50 mM Tris-HCl pH 7.5, 135 mM NaCl, 1% NP-40, 0.5% sodium DOC, 1 mM EDTA, 10% glycerol); IP with protein A/G-agarose beads, immunoblotting

Amino acid sequences for entries named in this document (tags omitted).
UniProt P97303: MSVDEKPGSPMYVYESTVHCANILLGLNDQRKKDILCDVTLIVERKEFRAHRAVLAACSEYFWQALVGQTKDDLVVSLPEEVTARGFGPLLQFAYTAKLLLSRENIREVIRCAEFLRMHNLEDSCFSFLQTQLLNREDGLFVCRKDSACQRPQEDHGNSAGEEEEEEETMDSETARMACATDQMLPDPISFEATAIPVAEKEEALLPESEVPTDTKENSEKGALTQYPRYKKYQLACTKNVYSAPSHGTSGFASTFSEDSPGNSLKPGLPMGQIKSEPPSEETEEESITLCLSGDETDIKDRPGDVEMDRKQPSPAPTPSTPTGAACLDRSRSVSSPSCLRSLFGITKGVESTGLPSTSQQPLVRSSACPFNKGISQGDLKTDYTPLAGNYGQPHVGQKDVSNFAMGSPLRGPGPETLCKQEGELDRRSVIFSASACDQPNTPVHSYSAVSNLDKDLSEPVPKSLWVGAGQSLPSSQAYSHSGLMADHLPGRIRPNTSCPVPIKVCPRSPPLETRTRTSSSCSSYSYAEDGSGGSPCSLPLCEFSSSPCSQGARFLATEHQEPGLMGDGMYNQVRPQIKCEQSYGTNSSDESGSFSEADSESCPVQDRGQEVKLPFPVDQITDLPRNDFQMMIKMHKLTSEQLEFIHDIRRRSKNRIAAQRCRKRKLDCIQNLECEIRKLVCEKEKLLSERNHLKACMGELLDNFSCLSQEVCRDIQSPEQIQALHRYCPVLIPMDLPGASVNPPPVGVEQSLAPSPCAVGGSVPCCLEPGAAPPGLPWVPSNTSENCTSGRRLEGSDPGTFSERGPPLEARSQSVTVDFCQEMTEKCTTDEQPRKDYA
UniProt Q9EP97: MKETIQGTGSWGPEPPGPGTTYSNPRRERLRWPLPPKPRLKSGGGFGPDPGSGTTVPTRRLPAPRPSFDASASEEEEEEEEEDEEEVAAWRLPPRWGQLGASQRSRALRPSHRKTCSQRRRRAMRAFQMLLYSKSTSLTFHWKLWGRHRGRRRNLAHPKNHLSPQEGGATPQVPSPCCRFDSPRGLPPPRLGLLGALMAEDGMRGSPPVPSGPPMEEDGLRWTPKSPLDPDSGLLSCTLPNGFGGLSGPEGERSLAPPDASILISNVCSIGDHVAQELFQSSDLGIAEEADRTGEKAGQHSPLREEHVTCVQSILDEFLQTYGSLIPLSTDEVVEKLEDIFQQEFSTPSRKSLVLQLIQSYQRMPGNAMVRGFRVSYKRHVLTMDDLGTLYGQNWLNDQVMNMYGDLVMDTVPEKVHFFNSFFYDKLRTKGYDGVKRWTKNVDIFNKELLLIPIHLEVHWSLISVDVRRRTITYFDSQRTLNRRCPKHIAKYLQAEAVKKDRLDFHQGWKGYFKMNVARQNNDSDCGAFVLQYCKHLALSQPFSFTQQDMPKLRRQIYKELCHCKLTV
UniProt Q9H4L4: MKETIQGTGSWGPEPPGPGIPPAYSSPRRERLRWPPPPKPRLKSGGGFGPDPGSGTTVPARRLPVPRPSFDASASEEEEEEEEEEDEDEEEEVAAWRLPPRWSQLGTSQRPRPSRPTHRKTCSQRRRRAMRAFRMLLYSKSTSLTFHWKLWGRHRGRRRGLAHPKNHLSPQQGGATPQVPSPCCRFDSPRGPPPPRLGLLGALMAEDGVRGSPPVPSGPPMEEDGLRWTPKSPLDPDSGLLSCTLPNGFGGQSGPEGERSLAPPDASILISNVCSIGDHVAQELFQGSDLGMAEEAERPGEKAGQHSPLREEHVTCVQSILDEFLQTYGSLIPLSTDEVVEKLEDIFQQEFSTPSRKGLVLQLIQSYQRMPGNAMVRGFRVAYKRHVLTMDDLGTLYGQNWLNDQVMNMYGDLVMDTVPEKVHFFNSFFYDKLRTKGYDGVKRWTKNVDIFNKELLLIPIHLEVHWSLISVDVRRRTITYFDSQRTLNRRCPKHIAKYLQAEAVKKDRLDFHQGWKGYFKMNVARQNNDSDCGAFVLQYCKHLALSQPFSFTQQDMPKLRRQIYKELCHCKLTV

Row | Substance | binding [1] | binding [2]
1 | SENP3, endogenous in mouse splenic Treg cells (from UniProt Q9EP97 1-568) (enzyme) | binds | –
2 | SUMO-specific protease 3 (SENP3), expressed from the pEGFP-C1 vector (from UniProt Q9H4L4 1-574) (enzyme) | – | binds
